## Library screen at single concentrations

Sequences of proteins named here, by UniProt entry; tags and fusion partners are left off. Residues count along the entry.
UniProt A4I591, 1-473: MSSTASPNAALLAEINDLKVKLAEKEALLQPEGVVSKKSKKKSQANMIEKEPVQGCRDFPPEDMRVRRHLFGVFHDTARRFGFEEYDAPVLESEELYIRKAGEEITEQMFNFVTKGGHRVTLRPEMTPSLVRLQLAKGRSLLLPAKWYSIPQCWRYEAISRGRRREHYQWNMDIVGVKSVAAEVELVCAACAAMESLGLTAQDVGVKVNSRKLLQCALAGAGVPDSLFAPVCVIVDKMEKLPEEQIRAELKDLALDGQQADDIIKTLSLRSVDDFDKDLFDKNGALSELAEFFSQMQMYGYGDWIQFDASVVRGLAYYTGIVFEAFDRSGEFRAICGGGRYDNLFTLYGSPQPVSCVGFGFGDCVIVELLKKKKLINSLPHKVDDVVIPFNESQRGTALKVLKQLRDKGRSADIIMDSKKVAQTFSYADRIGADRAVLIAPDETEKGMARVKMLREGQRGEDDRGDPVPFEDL
UniProt I6X8D2, whole entry: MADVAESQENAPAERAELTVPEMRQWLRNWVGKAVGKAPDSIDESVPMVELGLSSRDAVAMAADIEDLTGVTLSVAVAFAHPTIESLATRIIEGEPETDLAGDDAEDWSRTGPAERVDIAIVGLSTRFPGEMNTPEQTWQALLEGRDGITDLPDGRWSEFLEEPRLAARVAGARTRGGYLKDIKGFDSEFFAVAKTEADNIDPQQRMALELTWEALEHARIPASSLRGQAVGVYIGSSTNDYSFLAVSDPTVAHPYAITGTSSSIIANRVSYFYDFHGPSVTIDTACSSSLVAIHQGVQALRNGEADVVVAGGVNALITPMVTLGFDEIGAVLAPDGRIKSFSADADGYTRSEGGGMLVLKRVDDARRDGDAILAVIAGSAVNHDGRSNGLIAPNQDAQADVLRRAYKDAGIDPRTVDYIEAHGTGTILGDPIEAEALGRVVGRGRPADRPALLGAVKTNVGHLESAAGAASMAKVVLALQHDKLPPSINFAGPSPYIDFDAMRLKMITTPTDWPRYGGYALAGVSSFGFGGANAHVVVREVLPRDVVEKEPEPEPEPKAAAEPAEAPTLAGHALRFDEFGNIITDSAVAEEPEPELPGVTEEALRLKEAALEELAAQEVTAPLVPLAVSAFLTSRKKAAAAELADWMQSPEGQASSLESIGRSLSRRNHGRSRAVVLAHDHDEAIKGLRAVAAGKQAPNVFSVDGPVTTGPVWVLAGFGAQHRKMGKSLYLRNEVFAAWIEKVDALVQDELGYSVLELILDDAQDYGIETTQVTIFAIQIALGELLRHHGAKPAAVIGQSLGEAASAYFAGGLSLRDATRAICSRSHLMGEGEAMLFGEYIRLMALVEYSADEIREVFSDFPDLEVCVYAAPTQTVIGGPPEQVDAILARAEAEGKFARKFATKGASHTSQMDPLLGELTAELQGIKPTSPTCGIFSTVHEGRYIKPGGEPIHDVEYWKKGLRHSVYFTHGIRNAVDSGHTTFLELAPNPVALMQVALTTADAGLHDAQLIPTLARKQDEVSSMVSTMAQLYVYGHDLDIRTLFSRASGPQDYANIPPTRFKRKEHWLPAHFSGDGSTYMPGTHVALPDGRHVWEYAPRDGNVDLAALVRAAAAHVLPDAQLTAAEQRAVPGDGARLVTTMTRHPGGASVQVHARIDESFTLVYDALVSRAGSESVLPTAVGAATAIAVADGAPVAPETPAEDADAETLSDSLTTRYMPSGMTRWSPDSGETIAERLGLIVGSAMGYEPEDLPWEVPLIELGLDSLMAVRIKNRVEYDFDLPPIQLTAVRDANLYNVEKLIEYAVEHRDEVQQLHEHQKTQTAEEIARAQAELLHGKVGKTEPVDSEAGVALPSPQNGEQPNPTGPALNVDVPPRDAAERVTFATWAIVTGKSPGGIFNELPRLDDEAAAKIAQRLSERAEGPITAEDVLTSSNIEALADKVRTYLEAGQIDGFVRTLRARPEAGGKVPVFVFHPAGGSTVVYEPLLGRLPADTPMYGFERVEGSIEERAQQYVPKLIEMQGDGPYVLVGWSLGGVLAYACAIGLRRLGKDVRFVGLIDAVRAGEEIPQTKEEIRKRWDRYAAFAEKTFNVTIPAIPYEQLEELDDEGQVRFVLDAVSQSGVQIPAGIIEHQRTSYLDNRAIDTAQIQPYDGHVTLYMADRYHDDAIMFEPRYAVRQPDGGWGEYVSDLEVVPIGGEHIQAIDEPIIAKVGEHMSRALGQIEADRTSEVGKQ
UniProt P9WFT3, whole entry: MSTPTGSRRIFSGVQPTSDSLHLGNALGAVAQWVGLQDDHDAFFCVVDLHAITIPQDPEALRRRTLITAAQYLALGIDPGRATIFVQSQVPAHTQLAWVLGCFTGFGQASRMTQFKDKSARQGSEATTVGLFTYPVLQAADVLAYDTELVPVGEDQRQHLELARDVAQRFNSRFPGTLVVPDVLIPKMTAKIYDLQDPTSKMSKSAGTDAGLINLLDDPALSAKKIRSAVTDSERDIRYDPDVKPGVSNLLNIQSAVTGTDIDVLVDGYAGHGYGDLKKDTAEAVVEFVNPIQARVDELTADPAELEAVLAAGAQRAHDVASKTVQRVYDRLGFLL
UniProt Q4DA54, 1-478: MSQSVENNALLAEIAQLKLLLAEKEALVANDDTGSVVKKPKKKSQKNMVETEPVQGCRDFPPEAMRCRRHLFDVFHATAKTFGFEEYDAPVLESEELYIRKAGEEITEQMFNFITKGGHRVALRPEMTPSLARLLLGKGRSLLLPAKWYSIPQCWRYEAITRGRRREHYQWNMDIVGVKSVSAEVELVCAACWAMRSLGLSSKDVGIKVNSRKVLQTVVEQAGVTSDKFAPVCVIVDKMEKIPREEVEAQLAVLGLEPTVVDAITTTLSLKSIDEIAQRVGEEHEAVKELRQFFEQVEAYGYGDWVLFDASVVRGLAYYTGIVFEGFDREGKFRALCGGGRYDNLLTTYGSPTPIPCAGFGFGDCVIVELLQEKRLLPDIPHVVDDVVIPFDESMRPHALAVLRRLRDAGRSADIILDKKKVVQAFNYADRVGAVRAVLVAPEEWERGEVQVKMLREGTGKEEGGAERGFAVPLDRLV

The values are deposited in ChEMBL (CHEMBL3988442, “University of Dundee, Small-Polar-MMV Screening Library” (2021)).

The filed quantity is “Percent Effect” (%).
The controls that fix the scale are not given in the record; negative values are as filed.
This is an unselected part of the compounds tested.
A dash means the value is not listed here; it may have been measured.

LiHisRS: 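Enzyme assay of histidyl-tRNA synthetase; the read-out is not stated. Target: Histidine-tRNA ligase, Leishmania infantum (UniProt A4I591). Tested at 30 µM. Direction is inferred from retests: higher values go with stronger inhibition. The assay is labelled LdHisRS but filed under L. infantum. Size under these conditions: about 69,000 compounds, about 410 of them at 50% or above in at least one test.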
Pks13 thioesterase: 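Polyketide synthase Pks13, Mycobacterium tuberculosis (UniProt I6X8D2). Enzyme assay of the thioesterase domain of polyketide synthase 13; the read-out is not stated. Compounds at 30 µM. Higher reads as stronger inhibition (inferred from which compounds were picked for retests). About 67,000 compounds were tested under these conditions; 0.46% (about 300) showed 50% or more at least once.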
MtTrpRS: 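Tryptophan-tRNA ligase, Mycobacterium tuberculosis (UniProt P9WFT3). Enzyme assay of tryptophanyl-tRNA synthetase; the read-out is not stated. Concentration: 10 µM. Higher most likely means stronger inhibition; the record gives no direction and few retests gave an IC50. Of about 65,000 compounds tested this way, about 64 (0.098%) reached 50% or more in at least one test.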
TcHisRS: 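Enzyme assay of histidyl-tRNA synthetase; the read-out is not stated. Target: Histidine-tRNA ligase, Trypanosoma cruzi CL Brener (UniProt Q4DA54). Concentration: 30 µM. Direction is inferred from retests: higher values go with stronger inhibition. Size under these conditions: about 69,000 compounds, about 31 of them at 50% or above in at least one test.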

compound | LiHisRS | Pks13 thioesterase | MtTrpRS | TcHisRS
O=C(Cn1nc(-c2cccs2)ccc1=O)N1CCCCCC1 | 11.65 | -19.09 | 1.407 | -8.197
CO[C@H]1CN(C(=O)OC(C)(C)C)CC1NCc1ccco1 (stereo partly drawn) | 2.632 | -23.24 | -4.692 | 1.754
Cc1cc(C)n(CC(C)CNC(=O)N(C)Cc2ccco2)n1 (stereo not drawn) | 9.948 | -40.21 | 4.143 | 4.813
Cc1cccc(C(C)(C)CNC(=O)CCSc2nnnn2C)c1 | 5.882 | -30.89 | 1.467 | 7.843
CC(C)CC(=O)N1CC[C@@H]2CN(CC(=O)N(C)C)S(=O)(=O)[C@@H]2CC1 | 9.735 | -31.02 | 9.163 | -7.527
COCCc1noc(CN(C)C(=O)C2COc3ccccc3C2)n1 (stereo not drawn) | 15.2 | -9.268 | 0.942 | -1.508
CCCn1c(C)cc(C(=O)CN2C(=O)c3ccccc3CS2(=O)=O)c1C | -3.846 | 12.5 | 1.006 | -11.67
Cc1occc1C(=O)N1CCn2cnc(COCC3CC3)c2C1 | 16.81 | -6.233 | 1.195 | 1.075
O=C(NC1CCN(Cn2nc(-c3ccccc3)oc2=O)CC1)C1CC1 | 22.58 | -19 | -1.432 | 12.5
CN(C)C[C@H]1OC[C@@H]2CCN(C(=O)c3ccc[nH]3)C[C@@H]21 | 5.263 | 11.37 | -2.164 | 1.149
CN(C)CCn1c([C@@H]2CCCO2)cc2cccnc21 | 11.46 | 0.4813 | - | 7.447
O[C@@H]1C[C@H]2CN(Cc3ccccc3)[C@H](Cc3ccccc3)CN2C1 | 5.369 | -13.88 | 1.131 | 2
CCOCCN1CCN(CCC(=O)N2CCCCC2)CC1C (stereo not drawn) | 11.57 | -8.418 | -0.1564 | 3.061
Cn1cc(CN2CCCC3(CCN(C(=O)c4ccccn4)C3)C2)cn1 (stereo not drawn) | 11.76 | - | 0.9053 | 3.941
CC(Nc1nc(-c2ccccc2)nc2c1CCNCC2)c1cccnc1 (stereo not drawn) | 16.39 | -15.79 | -3.783 | 10.73
CN(C)CCNC(=O)c1cc2n(n1)CCN(C(=O)c1ccc[nH]1)C2 | 12.9 | -6.464 | -2.02 | 2.041
Cc1cccc(-c2noc([C@@H]3C[C@@H](O)CN3Cc3ccc(CO)o3)n2)c1 | 11.11 | -15.43 | 0.8364 | -0.4975
Cc1cnn(CC2CCCN2C(=O)Cc2ccc(C)nc2)c1 (stereo not drawn) | 13.04 | -30.72 | -5.24 | 2.817
NC(=O)C(NCCc1ccc(Cl)s1)c1ccccc1 (stereo not drawn) | 20 | -29.28 | 2.427 | 3.922
CN1CCN2CCN(Cc3cc(=O)n4c5c(cccc35)CCC4)CC2C1 (stereo not drawn) | 20.41 | -3.934 | 5.376 | -2.051
CN(C)c1ccc(C(=O)N2CCCC2c2ccc(Cl)cc2)nn1 (stereo not drawn) | 21.98 | -25.71 | 0.9272 | 4.217
Cc1cc(C)c(CNC(=O)NC2CCN(C(=O)C(C)C)CC2)c(C)c1 | 21.92 | -7.118 | -3.381 | 9.524
Cc1nc(CN2CCC3(CC2)CCN(C(=O)c2cscn2)C3)cs1 | 19 | -7.509 | -3.108 | 6.122
COc1cccc(N2CCN(Cc3nccn3C(C)C)CC2=O)c1 | 20.22 | -6.126 | 3.815 | 6.533
CCc1ccc(C(=O)N2CCCC(c3noc(CC)n3)C2)o1 (stereo not drawn) | 8 | -15 | 1.798 | 1.887
Cc1csc(NC(=O)c2cnc(C3CCNCC3)cn2)n1 | 10.34 | 12.14 | -5.49 | 4.563
CCCS(=O)(=O)N1C[C@H](N(C)Cc2ccco2)[C@@H]2OCCC[C@@H]21 | 9 | -6.482 | -5.383 | 6.122
Cc1cc(C2CCCN2C(=O)c2csc(-c3cnn(C)c3)n2)on1 (stereo not drawn) | 14.94 | -15.98 | -1.387 | 8.247
CN(C)C[C@@H]1[C@H]2CN(C(=O)c3cc(=O)[nH]c4ccc(F)cc34)C[C@@H]12 | 5.479 | 55.81 | 3.279 | -3.279
NC(=O)c1ccc(N2CCN(Cc3cccc4nsnc34)CC2)nc1 | 15.49 | -34.28 | -0.7064 | 4.459
O=c1nc(SCc2ccncc2)c2c(n1CCO)CCC2 | 8.264 | -8.159 | 0.4691 | -6.122
O=C(NCC1CCN(Cc2cc3ccccc3[nH]2)C1)C1CCCCC1 (stereo not drawn) | 20.51 | -20.35 | 3.595 | 3.614
Cc1n[nH]cc1CNC1(c2ccc(Br)cc2)CC1 | 10.96 | -10.18 | -2.601 | 6.349
Cn1nccc1NC(=O)Cn1ccc(-c2ccc3c(c2)OCO3)n1 | 5.495 | -9.984 | 2.524 | 4.95
CC(O)c1cn(Cc2ccc(Cl)cc2Cl)nn1 (stereo not drawn) | 14.58 | -8.323 | -1.715 | 8.333
Cc1ccc(-c2nnc(CCC(=O)N3CCCC3c3ccc[nH]3)o2)cc1 (stereo not drawn) | 7.229 | -20.29 | -4.549 | 6.077
CN(Cc1cnn(C)c1)S(=O)(=O)N1CCCCCC1 | 25 | -14.47 | -2.812 | 2.128